Test [1] has as its target T1, B-subcomplex of recombinant human coatomer (α-, β′- and ε-COP) (human) (UniProt P53621+P35606+O14579). Put plainly: negative-stain EM, single-particle reconstruction; soluble recombinant human coatomer, co-expressed and purified as one complex; 2% uranyl acetate; 19 Å overall, 18 Å and 20 Å for the two parts after focus refinement; model of membrane-bound coatomer (PDB 5A1U) fitted as a rigid body; both purified.

Chains of the proteins cited; added tags and fusions are not shown. Lines headed by an entry give the natural chain unless they say otherwise; changes in a name come on top.
UniProt P35606: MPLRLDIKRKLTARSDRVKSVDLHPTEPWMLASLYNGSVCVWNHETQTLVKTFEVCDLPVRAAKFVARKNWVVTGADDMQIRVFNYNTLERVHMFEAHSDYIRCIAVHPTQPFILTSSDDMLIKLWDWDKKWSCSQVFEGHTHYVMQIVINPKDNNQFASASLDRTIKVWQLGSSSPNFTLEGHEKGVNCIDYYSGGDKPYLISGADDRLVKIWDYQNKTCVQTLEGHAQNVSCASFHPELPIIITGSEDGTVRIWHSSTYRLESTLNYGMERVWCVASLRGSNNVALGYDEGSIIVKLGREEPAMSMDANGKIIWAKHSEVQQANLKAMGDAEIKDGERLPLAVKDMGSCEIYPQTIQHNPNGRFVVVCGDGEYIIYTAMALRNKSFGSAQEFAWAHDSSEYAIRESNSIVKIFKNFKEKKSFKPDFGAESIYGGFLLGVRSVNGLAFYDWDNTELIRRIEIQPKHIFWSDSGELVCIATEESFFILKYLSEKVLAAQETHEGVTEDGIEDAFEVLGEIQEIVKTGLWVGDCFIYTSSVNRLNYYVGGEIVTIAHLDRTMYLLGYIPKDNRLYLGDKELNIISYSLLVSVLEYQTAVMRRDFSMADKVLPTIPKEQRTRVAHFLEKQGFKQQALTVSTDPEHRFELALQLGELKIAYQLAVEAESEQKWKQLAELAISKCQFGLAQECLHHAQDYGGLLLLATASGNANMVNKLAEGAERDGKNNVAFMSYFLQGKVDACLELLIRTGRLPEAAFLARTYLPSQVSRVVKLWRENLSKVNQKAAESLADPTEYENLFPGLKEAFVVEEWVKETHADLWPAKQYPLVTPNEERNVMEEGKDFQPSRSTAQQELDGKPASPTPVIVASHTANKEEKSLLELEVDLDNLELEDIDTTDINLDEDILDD
UniProt O14579: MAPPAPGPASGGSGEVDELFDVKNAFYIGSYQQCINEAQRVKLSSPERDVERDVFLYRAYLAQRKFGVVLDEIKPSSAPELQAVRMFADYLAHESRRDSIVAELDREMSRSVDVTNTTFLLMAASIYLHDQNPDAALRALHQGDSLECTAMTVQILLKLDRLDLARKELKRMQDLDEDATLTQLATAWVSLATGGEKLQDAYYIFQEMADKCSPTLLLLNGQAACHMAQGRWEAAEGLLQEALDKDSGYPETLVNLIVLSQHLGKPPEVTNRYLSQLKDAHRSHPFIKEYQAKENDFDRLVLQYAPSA
UniProt P53618: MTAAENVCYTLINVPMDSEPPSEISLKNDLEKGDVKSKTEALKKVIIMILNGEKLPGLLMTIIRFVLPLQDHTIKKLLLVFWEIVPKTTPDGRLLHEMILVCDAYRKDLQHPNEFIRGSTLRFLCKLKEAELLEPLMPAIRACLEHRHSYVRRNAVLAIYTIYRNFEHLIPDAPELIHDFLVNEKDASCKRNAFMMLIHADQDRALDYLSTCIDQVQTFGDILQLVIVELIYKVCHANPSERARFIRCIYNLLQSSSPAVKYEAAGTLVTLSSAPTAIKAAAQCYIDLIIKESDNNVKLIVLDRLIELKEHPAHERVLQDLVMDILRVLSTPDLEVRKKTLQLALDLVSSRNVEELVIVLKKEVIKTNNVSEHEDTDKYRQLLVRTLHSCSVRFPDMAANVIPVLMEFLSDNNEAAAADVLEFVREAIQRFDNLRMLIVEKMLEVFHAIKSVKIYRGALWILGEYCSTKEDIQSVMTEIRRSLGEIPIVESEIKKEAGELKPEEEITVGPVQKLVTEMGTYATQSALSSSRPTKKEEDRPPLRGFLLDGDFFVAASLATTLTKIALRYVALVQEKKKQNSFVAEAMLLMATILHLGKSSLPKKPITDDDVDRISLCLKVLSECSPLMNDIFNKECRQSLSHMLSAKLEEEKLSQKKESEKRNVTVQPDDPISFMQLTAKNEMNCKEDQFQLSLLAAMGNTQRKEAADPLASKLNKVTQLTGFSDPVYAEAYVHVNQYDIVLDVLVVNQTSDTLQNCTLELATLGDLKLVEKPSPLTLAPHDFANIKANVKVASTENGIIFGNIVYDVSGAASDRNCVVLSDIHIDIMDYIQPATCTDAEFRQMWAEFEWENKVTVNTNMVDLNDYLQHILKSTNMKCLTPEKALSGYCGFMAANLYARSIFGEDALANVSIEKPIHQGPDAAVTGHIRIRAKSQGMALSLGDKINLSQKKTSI

The target of test [2] is T1, B-subcomplex of recombinant human coatomer (α-, β′- and ε-COP) (human). Description: cross-linking; CXMS: about 12 μg purified COPI complex (co-expressed and purified as one complex) with BS3, DSS or Sulfo-GMBS, protein : cross-linker 1:8 or 1:4, one hour at room temperature; trypsin, LC-MS/MS, pLink; both purified.
Test [3] addresses T2, α-COP isoform 1 (subunit of recombinant human coatomer) (human) (UniProt P53621).
T2 sequence: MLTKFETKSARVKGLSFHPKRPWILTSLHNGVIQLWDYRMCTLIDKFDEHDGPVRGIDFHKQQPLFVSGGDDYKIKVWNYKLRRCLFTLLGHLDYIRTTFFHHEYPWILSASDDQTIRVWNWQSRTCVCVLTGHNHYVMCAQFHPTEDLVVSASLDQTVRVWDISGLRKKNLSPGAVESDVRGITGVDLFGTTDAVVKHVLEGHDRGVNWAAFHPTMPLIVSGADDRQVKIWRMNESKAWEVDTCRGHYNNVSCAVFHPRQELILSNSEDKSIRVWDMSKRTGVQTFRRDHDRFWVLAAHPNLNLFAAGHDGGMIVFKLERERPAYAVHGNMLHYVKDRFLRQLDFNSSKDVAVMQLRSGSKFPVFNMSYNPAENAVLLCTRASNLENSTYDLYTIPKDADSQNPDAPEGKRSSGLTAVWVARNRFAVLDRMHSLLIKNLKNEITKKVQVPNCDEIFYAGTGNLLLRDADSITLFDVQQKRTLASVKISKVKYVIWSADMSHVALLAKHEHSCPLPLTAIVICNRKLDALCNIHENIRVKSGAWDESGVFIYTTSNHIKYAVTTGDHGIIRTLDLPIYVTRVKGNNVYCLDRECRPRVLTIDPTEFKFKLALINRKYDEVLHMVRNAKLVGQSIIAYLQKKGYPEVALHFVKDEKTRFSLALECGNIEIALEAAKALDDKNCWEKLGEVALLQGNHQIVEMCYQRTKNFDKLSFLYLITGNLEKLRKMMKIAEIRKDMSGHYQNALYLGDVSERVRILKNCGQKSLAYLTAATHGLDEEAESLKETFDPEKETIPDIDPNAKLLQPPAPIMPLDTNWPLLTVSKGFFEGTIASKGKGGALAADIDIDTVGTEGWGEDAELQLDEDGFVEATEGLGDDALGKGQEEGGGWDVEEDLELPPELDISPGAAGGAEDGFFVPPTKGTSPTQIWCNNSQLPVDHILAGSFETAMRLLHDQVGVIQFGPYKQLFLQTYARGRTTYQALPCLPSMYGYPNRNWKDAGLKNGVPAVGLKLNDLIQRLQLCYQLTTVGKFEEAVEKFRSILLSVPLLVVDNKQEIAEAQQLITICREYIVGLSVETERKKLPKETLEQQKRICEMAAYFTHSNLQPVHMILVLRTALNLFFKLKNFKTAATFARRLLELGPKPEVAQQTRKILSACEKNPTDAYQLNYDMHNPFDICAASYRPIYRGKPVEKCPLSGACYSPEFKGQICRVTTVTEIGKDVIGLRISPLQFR
The test is described as above.

Results are given in words; binding and its absence hold for the method and conditions named. Some binding calls cover weakened binding; strength is not graded here.

Turning to “F-subcomplex of recombinant human coatomer (β-, γ-, δ- and ζ-COP) (from UniProt P53618 1-953; Q9Y678 1-874; P48444-1 1-511; P61923-1 1-177)”, the binding entry in test [1] and in test [2] was “binds” each time. Regarding “ε-COP isoform 1 (subunit of recombinant human coatomer) (from UniProt O14579-1 1-308)”, in test [3], the binding entry is given as “binds”.

The record behind these values is publication PMC4980336.
